Laboratory results as given in the supplement of paper PMC10849652.
Some of the results follow.

By UniProt entry, the sequences of proteins in these tests, tags left out. Where a name states a change or a piece, a line headed by the entry shows the natural chain unless it says otherwise.
UniProt Q14244: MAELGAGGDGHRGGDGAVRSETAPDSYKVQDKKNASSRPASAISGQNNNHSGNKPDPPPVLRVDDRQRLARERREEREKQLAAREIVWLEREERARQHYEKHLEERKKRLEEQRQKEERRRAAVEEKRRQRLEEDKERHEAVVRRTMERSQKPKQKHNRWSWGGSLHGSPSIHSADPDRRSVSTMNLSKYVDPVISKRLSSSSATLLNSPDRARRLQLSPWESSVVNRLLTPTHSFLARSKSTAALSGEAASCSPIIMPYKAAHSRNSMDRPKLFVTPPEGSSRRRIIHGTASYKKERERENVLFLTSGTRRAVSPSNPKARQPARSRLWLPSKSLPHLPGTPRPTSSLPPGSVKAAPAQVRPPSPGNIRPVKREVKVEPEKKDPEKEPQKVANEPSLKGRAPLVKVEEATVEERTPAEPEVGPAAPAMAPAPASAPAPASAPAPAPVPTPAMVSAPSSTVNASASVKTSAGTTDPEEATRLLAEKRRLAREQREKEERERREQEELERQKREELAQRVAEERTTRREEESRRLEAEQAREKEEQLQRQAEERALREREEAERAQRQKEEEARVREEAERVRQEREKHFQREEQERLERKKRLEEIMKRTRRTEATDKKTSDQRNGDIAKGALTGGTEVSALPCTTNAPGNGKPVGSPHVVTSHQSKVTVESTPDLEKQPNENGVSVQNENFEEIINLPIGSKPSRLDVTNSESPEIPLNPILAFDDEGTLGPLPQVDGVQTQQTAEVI
UniProt O60476: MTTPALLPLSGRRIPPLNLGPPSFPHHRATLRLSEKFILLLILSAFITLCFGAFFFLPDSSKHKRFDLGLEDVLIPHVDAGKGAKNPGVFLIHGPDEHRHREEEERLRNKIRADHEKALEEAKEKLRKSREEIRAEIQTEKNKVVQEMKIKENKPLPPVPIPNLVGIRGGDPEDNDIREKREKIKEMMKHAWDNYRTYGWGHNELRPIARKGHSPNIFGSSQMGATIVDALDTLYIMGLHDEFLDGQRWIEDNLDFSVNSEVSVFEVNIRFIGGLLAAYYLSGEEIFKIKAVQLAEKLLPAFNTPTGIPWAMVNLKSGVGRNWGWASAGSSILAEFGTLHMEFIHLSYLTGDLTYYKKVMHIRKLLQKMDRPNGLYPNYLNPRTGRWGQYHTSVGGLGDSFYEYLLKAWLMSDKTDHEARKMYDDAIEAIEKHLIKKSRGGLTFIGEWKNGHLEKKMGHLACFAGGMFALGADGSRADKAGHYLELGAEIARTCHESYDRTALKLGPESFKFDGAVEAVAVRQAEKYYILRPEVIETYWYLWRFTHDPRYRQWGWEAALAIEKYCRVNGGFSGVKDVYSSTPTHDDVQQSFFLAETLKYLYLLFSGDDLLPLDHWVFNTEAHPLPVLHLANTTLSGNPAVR
UniProt O43325: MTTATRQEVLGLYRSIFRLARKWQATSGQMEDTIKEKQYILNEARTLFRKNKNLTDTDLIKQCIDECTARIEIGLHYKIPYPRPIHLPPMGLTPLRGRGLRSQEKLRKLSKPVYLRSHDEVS
UniProt Q86X29: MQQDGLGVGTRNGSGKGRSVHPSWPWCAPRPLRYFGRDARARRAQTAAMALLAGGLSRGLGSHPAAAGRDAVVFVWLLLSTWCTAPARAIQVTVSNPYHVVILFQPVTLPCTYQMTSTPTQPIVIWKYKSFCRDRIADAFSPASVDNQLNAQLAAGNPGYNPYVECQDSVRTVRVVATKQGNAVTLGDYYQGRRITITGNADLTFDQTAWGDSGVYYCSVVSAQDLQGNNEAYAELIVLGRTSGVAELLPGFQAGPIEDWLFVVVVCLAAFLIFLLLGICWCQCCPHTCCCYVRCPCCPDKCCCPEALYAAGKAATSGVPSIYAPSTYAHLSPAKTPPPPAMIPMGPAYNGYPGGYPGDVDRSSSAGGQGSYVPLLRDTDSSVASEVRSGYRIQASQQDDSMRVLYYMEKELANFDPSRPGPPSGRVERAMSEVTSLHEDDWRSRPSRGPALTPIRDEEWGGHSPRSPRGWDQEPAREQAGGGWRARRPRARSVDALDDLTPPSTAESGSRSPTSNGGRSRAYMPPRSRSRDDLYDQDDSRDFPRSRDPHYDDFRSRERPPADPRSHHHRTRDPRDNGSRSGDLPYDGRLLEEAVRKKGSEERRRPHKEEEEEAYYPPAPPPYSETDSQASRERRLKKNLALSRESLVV
UniProt Q99759: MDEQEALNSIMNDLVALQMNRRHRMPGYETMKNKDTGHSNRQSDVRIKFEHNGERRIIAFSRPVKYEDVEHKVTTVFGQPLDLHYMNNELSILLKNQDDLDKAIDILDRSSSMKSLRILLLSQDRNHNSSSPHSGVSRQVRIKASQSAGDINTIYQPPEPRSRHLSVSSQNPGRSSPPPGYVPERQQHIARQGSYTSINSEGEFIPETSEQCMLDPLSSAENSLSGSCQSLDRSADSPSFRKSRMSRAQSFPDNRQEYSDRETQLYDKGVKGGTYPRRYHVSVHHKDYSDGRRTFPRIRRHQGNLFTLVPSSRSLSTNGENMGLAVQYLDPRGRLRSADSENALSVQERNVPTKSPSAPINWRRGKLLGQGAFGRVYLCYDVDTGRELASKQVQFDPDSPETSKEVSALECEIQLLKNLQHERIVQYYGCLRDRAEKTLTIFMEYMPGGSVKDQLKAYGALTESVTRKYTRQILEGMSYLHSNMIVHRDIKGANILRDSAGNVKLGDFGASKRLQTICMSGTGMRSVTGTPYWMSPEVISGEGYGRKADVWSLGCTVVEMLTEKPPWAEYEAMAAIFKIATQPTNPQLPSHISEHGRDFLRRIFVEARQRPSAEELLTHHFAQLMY
UniProt Q9C099: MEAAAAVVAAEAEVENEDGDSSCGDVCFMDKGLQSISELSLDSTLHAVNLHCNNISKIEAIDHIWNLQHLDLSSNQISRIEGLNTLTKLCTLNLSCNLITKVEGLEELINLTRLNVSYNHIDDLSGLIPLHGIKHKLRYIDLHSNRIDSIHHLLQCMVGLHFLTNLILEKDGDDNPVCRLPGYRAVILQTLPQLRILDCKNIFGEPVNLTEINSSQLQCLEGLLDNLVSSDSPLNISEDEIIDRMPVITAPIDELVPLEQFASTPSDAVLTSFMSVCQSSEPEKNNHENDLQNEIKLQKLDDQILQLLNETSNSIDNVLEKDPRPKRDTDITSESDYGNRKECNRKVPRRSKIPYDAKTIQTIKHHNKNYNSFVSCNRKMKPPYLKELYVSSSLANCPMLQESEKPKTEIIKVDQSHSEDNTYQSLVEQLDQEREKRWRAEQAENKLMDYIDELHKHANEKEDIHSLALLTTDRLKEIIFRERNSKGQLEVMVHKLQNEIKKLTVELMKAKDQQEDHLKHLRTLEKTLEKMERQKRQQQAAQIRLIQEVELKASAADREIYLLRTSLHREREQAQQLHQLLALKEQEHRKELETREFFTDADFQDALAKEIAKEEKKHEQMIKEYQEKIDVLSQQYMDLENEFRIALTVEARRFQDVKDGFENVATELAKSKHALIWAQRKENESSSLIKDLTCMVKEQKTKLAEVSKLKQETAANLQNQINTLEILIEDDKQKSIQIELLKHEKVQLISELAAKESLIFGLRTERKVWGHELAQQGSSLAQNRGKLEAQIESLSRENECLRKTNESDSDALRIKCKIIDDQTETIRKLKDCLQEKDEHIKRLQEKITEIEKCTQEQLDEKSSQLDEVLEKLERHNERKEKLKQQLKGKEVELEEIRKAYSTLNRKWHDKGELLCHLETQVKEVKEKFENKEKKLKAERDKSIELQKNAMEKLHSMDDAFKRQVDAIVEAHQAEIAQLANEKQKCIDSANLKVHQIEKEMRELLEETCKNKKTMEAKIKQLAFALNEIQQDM
UniProt P10636, whole entry, looked up: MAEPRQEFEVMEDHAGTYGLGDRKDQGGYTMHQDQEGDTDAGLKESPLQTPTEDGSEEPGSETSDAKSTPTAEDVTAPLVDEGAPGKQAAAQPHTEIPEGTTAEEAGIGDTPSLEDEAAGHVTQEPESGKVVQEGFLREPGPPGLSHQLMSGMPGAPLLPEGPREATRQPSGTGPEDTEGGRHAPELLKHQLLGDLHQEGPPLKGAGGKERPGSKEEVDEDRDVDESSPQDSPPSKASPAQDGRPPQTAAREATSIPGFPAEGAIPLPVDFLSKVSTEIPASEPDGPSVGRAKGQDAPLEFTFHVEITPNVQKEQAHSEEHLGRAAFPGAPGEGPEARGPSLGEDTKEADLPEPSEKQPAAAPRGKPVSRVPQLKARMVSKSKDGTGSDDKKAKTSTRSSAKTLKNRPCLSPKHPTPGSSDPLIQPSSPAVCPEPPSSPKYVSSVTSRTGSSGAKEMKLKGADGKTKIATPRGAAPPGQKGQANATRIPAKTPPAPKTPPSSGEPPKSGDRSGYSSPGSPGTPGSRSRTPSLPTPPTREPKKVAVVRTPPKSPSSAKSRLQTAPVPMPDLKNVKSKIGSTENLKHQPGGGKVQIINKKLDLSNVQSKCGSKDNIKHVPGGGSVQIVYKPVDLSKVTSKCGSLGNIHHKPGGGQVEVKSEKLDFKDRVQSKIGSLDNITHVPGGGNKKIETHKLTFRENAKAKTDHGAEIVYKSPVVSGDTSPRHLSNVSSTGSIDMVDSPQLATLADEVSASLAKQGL
UniProt O95819: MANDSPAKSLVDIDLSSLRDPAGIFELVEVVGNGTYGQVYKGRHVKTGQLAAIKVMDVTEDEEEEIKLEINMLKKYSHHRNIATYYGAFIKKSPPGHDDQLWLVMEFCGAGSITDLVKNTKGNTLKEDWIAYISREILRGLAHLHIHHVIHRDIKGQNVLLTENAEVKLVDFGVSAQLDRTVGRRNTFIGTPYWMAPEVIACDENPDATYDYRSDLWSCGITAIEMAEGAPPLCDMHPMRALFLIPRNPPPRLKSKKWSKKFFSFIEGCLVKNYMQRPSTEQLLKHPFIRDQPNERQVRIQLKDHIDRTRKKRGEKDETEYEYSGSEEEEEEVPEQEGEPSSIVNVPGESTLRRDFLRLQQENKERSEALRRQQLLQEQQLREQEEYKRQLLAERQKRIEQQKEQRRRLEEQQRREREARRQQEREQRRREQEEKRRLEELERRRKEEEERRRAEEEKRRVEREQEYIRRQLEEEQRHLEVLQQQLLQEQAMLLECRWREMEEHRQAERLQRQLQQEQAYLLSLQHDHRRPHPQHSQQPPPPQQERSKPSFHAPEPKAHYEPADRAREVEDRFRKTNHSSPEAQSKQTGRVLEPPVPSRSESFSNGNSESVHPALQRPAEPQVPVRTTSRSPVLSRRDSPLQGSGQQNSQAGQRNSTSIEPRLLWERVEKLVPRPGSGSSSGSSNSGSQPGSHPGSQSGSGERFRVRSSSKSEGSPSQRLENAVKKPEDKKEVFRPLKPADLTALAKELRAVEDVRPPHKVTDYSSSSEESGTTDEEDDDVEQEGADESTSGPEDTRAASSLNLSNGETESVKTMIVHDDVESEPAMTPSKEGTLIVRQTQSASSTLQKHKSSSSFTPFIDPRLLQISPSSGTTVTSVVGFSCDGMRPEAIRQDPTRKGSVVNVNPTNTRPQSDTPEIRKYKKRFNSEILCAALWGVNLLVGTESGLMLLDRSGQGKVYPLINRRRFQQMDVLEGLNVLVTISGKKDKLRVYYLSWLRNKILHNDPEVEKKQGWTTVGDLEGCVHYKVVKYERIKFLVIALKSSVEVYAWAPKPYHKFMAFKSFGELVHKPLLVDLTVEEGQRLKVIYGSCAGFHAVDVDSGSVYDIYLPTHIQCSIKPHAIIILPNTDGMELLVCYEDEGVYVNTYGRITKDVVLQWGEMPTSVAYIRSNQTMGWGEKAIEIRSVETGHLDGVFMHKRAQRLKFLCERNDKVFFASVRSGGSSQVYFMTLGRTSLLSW
UniProt Q15759, whole entry, looked up: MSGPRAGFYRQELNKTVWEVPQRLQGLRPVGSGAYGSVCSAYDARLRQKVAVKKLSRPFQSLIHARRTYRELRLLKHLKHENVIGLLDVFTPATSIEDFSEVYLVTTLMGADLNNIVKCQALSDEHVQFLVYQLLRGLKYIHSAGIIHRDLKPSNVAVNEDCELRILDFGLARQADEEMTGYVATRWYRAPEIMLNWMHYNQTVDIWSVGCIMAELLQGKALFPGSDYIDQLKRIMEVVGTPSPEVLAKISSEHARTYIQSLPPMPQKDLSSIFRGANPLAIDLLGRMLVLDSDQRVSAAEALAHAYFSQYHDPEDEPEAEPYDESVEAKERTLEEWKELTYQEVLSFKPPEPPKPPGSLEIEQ

Tests used:
Experiment in all cases: log2 fold change, soluble protein after heating vs DMSO (PISA); higher = thermal stabilisation; K562 cells, 10 uM, 30 min; active = over 0.2 and 3.5 SD of the protein, either way, in both replicates (recomputed)
[1] = compound: Cc1ccc(NC(=O)c2ccc(CN3CC[C@H](N(C)C)C3)c(C(F)(F)F)c2)cc1Nc1nccc(-c2cncnc2)n1 [bafetinib]
Procedure, shortened: (§1)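 K562 cells (2×10^6 cells/mL) were treated with 10 μM compound for 30 min, and aliquots were heated for 3 min over 48°C-58°C. Pooled aliquots were extracted in PBS with 0.5% NP-40 at 4°C, and the supernatant after 21,000xg for 90 min was measured by TMTpro 16plex LC-MS/MS with channel sums equalised. Reported thermal stability, relative to control samples and from duplicates, is a log2 fold change.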

[2] = compound: Cc1cccc(CC(=O)N2CCc3c2ccc(-c2cn(C)c4ncnc(N)c24)c3F)n1
Procedure, shortened: as §1

[3] = compound: Cc1cn(-c2cc(NC(=O)c3ccc(C)c(Nc4nccc(-c5cccnc5)n4)c3)cc(C(F)(F)F)c2)cn1 [nilotinib]
Procedure, shortened: as §1

[4] = compound: Cc1nc(Nc2n[nH]c3c2CN(C(=O)N[C@H](CN(C)C)c2ccccc2)C3(C)C)c2sccc2n1
Procedure, shortened: as §1

[5] = compound: Cc1nc(Nc2ncc(C(=O)Nc3c(C)cccc3Cl)s2)cc(N2CCN(CCO)CC2)n1 [dasatinib]
Procedure, shortened: as §1

[6] = compound: Cc1ncc(-c2ccnc(Nc3ccc(S(C)(=O)=O)cc3)n2)n1C(C)C
Procedure, shortened: as §1

[7] = compound: Cn1cc(-c2ccc3c(c2)CCN3C(=O)Cc2cccc(C(F)(F)F)c2)c2c(N)ncnc21
Procedure, shortened: as §1

[8] = compound: Cn1cc(-c2ccc3nnc(C(F)(F)c4ccc5ncccc5c4)n3n2)cn1
Procedure, shortened: as §1

[9] = compound: Cn1cncc1[C@@](N)(c1ccc(Cl)cc1)c1ccc2c(c1)c(-c1cccc(Cl)c1)cc(=O)n2C [tipifarnib]
Procedure, shortened: as §1

[10] = compound: FC(F)(F)c1ccc(/C=C/c2nc(COc3ccc(CCCCn4ccnn4)cc3)co2)cc1 [mubritinib]
Procedure, shortened: as §1

Measured: log2 fold change

LSS (UniProt P48449)
inactive: [1] 0.393 | [2] 0 | [3] -0.046 | [4] 0.047 | [5] 0 | [6] 0.013 | [7] 0.145 | [8] 0 | [9] -0.039 | [10] 0.193

MAP4 (UniProt P27816)
inactive: [1] 0.008 | [2] 0.005 | [3] 0.008 | [4] 0.008 | [5] 0.049 | [6] -0.01 | [7] -0.033 | [8] -0.029 | [9] 0 | [10] -0.007

MAP7 isoform 7 (UniProt Q14244)
inactive: [1] 0.17 | [2] -0.024 | [3] 0.006 | [4] 0.145 | [5] 0.155 | [6] -0.091 | [7] -0.261 | [8] -0.08 | [9] 0.126 | [10] -0.101

LTA4H (UniProt P09960)
inactive: [1] -0.037 | [2] 0.022 | [3] -0.001 | [4] 0.011 | [5] -0.03 | [6] 0 | [7] 0.025 | [8] 0.011 | [9] -0.102 | [10] 0.037

MAN1A2 (UniProt O60476)
inactive: [1] -0.112 | [2] -0.005 | [3] -0.005 | [4] -0.014 | [5] -0.011 | [6] 0.009 | [7] 0.021 | [8] 0.065 | [9] 0.012 | [10] 0.012

MAPRE2 (UniProt Q15555)
inactive: [1] 0.288 | [2] 0.026 | [3] 0.131 | [4] -0.099 | [5] -0.069 | [6] 0.071 | [7] -0.016 | [8] -0.133 | [9] -0.069 | [10] -0.007

MAPK14 (UniProt Q16539)
active: [1] 1.65 | [3] 1.68 | [5] 1.05
inactive: [2] -0.092 | [4] 0.123 | [6] 0.071 | [7] 0.107 | [8] 0.014 | [9] -0.102 | [10] 0

LYRM1 (UniProt O43325)
inactive: [1] -0.122 | [2] 0.272 | [3] 0.008 | [4] -0.018 | [5] -0.07 | [6] 0.011 | [7] 0.095 | [8] 0.143 | [9] 0.002 | [10] 0.037

LSM3 (UniProt P62310)
inactive: [1] -0.012 | [2] 0 | [3] 0.053 | [4] -0.054 | [5] 0.05 | [6] -0.043 | [7] 0.02 | [8] 0.024 | [9] -0.053 | [10] 0.024

MAGEB1 (UniProt P43366)
inactive: [1] 0.185 | [2] 0.132 | [3] -0.043 | [4] -0.042 | [5] 0.085 | [6] -0.017 | [7] -0.244 | [8] -0.183 | [9] 0.098 | [10] -0.247

MAGEB2 (UniProt O15479)
inactive: [1] 0.141 | [2] -0.105 | [3] -0.07 | [4] 0.024 | [5] 0.114 | [6] -0.021 | [7] 0.015 | [8] -0.127 | [9] 0.172 | [10] -0.516

LSR isoform 3 (UniProt Q86X29)
inactive: [5] -0.074 | [7] 0.026 | [9] 0.101 | [10] 0.435

MAP3K3 isoform 2 (UniProt Q99759)
inactive: [2] -0.012 | [3] 0.003 | [4] -0.17 | [5] -0.307 | [6] -0.069 | [7] 0.02 | [8] 0.022 | [10] 0.075

MAP2K5 (UniProt Q13163)
inactive: [5] 0.063 | [7] 0.06 | [8] 0

LRRCC1 (UniProt Q9C099)
inactive: [5] 0.017 | [8] 0.063

MAML1 (UniProt Q92585)
inactive: [7] 0.087 | [8] -0.009

MAFG (UniProt O15525)
inactive: [2] -0.104 | [7] -0.171 | [8] -0.049

LSG1 (UniProt Q9H089)
inactive: [5] -0.001 | [7] -0.048 | [8] -0.143 | [9] 0.304 | [10] 0.068

LRRC8C (UniProt Q8TDW0)
inactive: [2] 0.082 | [3] 0.062 | [4] 0.008 | [5] 0.105 | [6] 0.045 | [7] -0.19 | [8] -0.082 | [9] -0.008 | [10] 0.052

MAPK7 (UniProt Q13164)
inactive: [2] 0.034

MAPT isoform 9 (UniProt P10636)
inactive: [1] -0.327 | [9] 0.047

Reprinted from the listing (two entries):
MAPK7 (UniProt Q13164)
inactive: [2] 0.034

MAPT isoform 9 (UniProt P10636)
inactive: [1] -0.327 | [9] 0.047

The list continues.

LSM11 (UniProt P83369)
inactive: [2] -0.066 | [7] 0.029

LRRFIP1 isoform 4 (UniProt Q32MZ4)
inactive: [2] -0.046 | [5] -0.095 | [7] -0.226

MAN2B1 (UniProt M0QYZ1)
inactive: [9] 0.159

LYPLA1, A0A087X1K9
inactive: [5] -0.296 | [8] 0.191 | [10] 0.314

MAP4K4 isoform 6 (UniProt O95819)
inactive: [3] 0.047 | [4] -0.034 | [5] -0.001 | [6] 0.008 | [7] 0.1 | [10] 0.02

MARCHF3 (UniProt Q86UD3)
inactive: [1] 0.109 | [3] 0.156 | [4] 0.15 | [6] 0.036 | [9] 0.001

LTBP4 (UniProt Q8N2S1)
inactive: [2] 0.017 | [3] -0.045 | [4] 0.102 | [5] 0.148 | [6] 0.261 | [7] -0.072 | [9] -0.005 | [10] 0.167

LRRC8D (UniProt Q7L1W4)
inactive: [3] -0.001 | [4] 0.014 | [5] 0.022 | [6] 0.002 | [7] -0.103 | [8] -0.091 | [9] -0.023 | [10] 0.018

MAGI3 isoform 1 (UniProt Q5TCQ9)
inactive: [1] 0.019 | [5] 0.074 | [10] 0.197

MAPK11 (UniProt Q15759)
inactive: [2] -0.116 | [8] -0.024

MAP3K20 isoform 2 (UniProt Q9NYL2)
inactive: [3] 0.098 | [4] 0.014 | [6] -0.07 | [9] 0.138 | [10] -0.134

MAGEB10 (UniProt Q96LZ2)
inactive: [3] 0.064 | [4] -0.084 | [5] 0.083 | [6] -0.087 | [7] -0.238
